No constants are given. Whether binding was seen depends on the method and setting. Binding seen in cells or lysates may run through a third protein. Some entries that bind do so weakly or less than the wild type.
Biological target: scaffold attachment factor B (SAFB) (human (endogenous in HEK293T)) (UniProt Q15424)
Experiment: co-IP; reciprocal immunoprecipitation from HEK293T lysates (SKA1-overexpressed and control), anti-SKA1 or control IgG; Western blot with anti-SKA1 or anti-SAFB; normal IgG as negative control

The chains behind the UniProt entries cited, without tags or fusion partners.
UniProt Q15424: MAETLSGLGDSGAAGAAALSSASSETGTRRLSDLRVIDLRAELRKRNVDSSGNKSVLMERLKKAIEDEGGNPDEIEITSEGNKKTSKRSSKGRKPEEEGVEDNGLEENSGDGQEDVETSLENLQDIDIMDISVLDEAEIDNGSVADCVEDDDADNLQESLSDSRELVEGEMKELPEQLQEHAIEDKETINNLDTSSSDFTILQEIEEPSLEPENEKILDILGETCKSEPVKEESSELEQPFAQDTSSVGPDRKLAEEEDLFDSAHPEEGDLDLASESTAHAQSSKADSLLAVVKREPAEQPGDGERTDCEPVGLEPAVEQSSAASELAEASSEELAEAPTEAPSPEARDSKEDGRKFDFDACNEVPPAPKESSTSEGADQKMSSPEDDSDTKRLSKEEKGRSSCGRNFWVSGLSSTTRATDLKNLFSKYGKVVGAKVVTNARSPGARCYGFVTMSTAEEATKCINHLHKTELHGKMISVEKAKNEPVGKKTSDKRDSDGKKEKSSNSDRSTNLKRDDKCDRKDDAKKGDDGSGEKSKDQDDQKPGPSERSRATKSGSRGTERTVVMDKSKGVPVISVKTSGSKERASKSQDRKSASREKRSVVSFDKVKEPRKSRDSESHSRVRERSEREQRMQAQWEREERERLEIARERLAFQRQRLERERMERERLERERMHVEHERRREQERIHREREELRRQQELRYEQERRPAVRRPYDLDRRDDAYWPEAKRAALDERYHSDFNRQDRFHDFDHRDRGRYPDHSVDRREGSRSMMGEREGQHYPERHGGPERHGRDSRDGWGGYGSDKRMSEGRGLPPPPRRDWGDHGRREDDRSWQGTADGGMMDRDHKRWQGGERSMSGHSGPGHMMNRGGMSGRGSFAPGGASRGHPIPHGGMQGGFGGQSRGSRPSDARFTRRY
UniProt Q96BD8: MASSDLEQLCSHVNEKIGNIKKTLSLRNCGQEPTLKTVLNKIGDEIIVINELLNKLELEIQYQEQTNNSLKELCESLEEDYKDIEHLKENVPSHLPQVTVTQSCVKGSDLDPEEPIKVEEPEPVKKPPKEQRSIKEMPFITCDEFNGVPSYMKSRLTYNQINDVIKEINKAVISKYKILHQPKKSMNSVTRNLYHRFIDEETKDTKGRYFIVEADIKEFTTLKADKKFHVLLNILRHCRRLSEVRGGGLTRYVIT

With “Spindle and kinetochore-associated protein 1 (SKA1) (from UniProt Q96BD8 1-255)” the binding was “binds”.
